This passage reports binding results from paper PMC10334844.

Protein sequences, listed by entry. Tags and fused reporters are not part of them.
UniProt P29391: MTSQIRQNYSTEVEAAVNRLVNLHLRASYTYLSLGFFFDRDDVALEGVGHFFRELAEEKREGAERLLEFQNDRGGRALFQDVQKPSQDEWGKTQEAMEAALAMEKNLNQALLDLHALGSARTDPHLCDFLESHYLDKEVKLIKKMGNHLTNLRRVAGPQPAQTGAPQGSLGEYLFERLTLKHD

No constants are given. Whether binding was seen depends on the method and setting. In cells and extracts the contact can be indirect. Some entries that bind do so weakly or less than the wild type.

For the assay, the target named is T1, Ca2+-independent phospholipase A2β (mouse (endogenous in RAW264.7)) (UniProt P97819).
T1 sequence: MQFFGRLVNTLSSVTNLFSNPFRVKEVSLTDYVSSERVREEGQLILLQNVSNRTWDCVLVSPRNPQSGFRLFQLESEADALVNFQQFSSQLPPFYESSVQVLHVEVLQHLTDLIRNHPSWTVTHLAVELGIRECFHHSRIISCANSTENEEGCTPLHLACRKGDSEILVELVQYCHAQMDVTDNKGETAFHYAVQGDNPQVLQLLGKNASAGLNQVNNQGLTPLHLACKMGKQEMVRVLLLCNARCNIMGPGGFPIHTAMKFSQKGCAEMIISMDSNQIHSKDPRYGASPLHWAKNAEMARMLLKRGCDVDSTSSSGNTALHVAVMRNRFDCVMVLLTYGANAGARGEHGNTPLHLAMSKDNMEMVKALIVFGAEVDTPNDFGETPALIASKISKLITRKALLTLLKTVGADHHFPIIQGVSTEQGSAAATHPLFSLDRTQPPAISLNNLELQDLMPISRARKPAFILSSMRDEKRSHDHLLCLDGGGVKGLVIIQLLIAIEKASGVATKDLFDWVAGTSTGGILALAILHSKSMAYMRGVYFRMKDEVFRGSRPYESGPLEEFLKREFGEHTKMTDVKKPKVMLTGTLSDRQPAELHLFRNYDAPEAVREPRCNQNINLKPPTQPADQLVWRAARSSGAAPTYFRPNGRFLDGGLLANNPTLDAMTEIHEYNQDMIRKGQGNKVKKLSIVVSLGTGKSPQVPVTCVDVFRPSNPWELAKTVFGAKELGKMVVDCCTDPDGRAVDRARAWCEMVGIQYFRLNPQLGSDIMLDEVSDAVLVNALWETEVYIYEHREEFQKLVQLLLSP
As to the kind of experiment: co-IP; RAW264.7 macrophage lysate in CO-IP buffer (50 mM Tris-HCl pH 7.5, 200 mM NaCl, 5 mM MgCl2, 1% NP-40, 10% glycerol, 1 mM DTT); antibodies 2 h, Protein G beads overnight at 4 °C; immunoblot. Background: In western blotting, separated proteins are transferred to a membrane and probed.

Regarding “ferritin light chain (from UniProt P29391 1-183)”, the binding entry is given as “binds”.
